Holding throughout (assay): log2 fold change, soluble protein after heating vs DMSO (PISA); higher = thermal stabilisation; K562 cells, 10 uM, 30 min; active = over 0.2 and 3.5 SD of the protein, either way, in both replicates (recomputed)
Compound in experiment [1]: CC1=C(C=C(C=C1)NC(=O)C2=CC(=CC=C2)C(C)(C)C#N)NC3=CC4=C(C=C3)N=CN(C4=O)C
In outline:
(§1)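 For each measurement, 10 μM compound was applied for 30 min to K562 cells at 2×10^6 cells/mL. Aliquots were heated for 3 min across 48°C-58°C, pooled, and extracted in PBS with 0.5% NP-40 at 4°C; the supernatant after 21,000xg for 90 min was soluble protein. This was quantified by TMTpro 16plex LC-MS/MS with channel sums equalised, and thermal stability was reported relative to control samples from duplicates, on a log2 fold-change scale.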

Chains of the proteins cited; added tags and fusions are not shown. Lines headed by an entry give the natural chain unless they say otherwise; changes in a name come on top.
UniProt Q14249: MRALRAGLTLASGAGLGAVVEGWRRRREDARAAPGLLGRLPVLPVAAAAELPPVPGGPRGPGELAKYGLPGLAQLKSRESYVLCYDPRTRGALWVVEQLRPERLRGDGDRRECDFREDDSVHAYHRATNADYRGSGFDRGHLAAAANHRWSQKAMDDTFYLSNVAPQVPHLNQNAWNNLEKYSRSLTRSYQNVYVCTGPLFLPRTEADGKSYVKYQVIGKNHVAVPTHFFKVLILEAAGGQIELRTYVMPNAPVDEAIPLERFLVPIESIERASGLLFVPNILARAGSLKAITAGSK
UniProt O43324: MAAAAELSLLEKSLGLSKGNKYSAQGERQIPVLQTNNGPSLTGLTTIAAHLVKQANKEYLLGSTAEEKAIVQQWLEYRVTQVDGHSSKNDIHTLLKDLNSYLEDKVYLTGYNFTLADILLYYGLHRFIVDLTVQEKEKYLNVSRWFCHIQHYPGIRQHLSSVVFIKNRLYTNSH
UniProt Q9BQ52: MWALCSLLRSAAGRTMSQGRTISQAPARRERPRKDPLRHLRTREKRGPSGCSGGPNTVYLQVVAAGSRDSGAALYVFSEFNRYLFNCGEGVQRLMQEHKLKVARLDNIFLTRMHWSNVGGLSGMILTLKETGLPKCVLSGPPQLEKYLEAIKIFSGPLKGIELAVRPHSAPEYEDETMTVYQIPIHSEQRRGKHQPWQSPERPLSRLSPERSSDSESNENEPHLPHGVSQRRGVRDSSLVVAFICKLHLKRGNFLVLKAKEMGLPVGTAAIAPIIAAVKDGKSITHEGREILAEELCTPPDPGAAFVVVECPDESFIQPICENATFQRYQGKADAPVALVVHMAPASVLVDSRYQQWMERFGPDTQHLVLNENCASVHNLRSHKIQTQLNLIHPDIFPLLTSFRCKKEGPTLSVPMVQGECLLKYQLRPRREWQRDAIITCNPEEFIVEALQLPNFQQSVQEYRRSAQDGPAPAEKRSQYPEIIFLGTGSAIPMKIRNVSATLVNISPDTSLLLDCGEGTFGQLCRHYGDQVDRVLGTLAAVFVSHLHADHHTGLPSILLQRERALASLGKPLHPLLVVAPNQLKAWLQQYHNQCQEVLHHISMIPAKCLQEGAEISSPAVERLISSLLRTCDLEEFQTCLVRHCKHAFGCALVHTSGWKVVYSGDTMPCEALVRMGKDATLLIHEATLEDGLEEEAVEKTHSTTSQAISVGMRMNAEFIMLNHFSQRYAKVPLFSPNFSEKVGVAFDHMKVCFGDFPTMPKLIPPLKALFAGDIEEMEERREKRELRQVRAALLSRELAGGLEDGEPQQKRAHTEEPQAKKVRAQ
UniProt Q8N3D4: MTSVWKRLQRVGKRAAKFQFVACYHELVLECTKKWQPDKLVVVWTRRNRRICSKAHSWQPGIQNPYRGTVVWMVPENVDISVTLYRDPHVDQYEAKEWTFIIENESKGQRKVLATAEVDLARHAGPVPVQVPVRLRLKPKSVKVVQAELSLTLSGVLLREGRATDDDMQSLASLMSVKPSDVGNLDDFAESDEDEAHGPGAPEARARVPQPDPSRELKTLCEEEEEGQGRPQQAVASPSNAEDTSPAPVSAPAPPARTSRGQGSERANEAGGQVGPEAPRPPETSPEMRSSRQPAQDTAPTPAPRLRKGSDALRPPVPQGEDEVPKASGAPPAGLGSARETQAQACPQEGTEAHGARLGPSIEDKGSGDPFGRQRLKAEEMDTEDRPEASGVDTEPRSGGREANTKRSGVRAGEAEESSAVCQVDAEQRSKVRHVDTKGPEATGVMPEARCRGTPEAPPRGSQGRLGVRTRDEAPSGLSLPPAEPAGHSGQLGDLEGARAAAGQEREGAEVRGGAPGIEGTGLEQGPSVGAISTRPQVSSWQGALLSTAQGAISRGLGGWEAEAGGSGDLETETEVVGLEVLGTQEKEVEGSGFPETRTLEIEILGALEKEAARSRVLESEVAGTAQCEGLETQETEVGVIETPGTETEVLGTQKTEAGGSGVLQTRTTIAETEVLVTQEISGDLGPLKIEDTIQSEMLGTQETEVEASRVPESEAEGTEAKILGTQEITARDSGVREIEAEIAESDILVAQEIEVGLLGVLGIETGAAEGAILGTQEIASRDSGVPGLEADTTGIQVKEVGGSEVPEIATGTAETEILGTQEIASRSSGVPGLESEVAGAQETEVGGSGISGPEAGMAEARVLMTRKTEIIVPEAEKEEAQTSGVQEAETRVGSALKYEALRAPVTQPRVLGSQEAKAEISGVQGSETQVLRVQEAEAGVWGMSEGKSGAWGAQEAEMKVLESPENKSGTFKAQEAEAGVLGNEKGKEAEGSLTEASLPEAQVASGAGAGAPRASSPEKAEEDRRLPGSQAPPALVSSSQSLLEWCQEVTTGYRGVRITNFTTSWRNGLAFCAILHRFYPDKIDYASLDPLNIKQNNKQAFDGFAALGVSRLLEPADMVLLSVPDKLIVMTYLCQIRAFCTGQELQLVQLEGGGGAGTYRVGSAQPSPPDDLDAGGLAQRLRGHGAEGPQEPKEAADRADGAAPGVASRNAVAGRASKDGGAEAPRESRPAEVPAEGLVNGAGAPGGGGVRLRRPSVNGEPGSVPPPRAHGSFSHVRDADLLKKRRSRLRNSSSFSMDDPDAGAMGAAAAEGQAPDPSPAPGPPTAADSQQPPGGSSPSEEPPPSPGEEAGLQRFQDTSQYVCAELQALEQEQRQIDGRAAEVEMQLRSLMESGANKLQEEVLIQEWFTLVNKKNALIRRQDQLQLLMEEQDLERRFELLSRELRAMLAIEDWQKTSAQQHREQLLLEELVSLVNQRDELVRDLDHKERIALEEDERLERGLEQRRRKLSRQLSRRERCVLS

Compound in experiment [2]: CC1=C(C=C(C=C1)NC(=O)C2=CC(=CC=C2)N(C)C)NC(=O)C3=CC=C(C=C3)O
In outline:
as §1

Compound in experiment [3]: CC1=CC=C(C=C1)SC2=C3C=C(SC3=CN=C2)C(=O)N
In outline: as §1

Compound in experiment [4]: CC1=NC(=CC=C1)C2=C(N=C(N2)C(C)(C)C)C3=CC4=NC=CN=C4C=C3
In outline:
as §1

Compound in experiment [5]: CCCCN(Cc1ccc(C(=O)NO)cc1)C(=O)Nc1ccccc1 [Nexturastat A]
In outline:
as §1

Compound in experiment [6]: CCCS(=O)(=O)Nc1ccc(F)c(C(=O)c2c[nH]c3ncc(-c4ccc(Cl)cc4)cc23)c1F [vemurafenib]
In outline:
as §1

Compound in experiment [7]: CCCS(=O)(=O)Nc1ccc(F)c(C(=O)c2c[nH]c3ncc(Cl)cc23)c1F
In outline: as §1

Compound in experiment [8]: CCCc1cc(C)[nH]c(=O)c1CNC(=O)c1cc(-c2ccnc(N3CCN(C)CC3)c2)cc2c1cnn2C(C)C
In outline: as §1

Compound in experiment [9]: CCN(CC)Cc1ccc2cc(COC(=O)Nc3ccc(C(=O)NO)cc3)ccc2c1 [givinostat]
In outline:
as §1

Compound in experiment [10]: CCN(CCCOc1ccc2c(Nc3cc(CC(=O)Nc4cccc(F)c4)[nH]n3)ncnc2c1)CCOP(=O)(O)O [barasertib]
In outline:
as §1

Compound in experiment [11]: CC[C@@H]1C(=O)N(C)c2cnc(Nc3ccc(C(=O)NC4CCN(C)CC4)cc3OC)nc2N1C1CCCC1
In outline: as §1

Compound in experiment [12]: CC[C@@H]1C(=O)N(C)c2cnc(Nc3ccc(C(=O)N[C@H]4CC[C@H](N5CCN(CC6CC6)CC5)CC4)cc3OC)nc2N1C(C)C [volasertib]
In outline: as §1

Compound in experiment [13]: CC[C@H](C)N1C=C(C2=C(C=C(C=C21)C3=CN=C(C=C3)N4CCNCC4)C(=O)NCC5=C(C=C(NC5=O)C)C)C
In outline:
as §1

Compound in experiment [14]: CC[C@H](C)[C@@H](C(=O)N[C@@H]([C@@H](C)O)C(=O)N[C@@H](CC(C)C)C(=O)[C@]1(CO1)C)NC(=O)[C@H]([C@@H](C)CC)N(C)C(=O)C [epoxomicin]
In outline: as §1

Compound in experiment [15]: CCn1c(C(=O)N(C2CC2)C2CC2)cc2c3c(ncn3C)c(Nc3cc(C)n(C)n3)nc21
In outline:
as §1

Compound in experiment [16]: CCn1cc(-c2ccnc3[nH]c(-c4cccc(CN(C)C)c4)cc23)c(-c2ccc(NC(=O)N(C)C)cc2)n1
In outline:
as §1

Compound in experiment [17]: CN(C)CC(=O)Nc1ccc2[nH]c(=O)c3ccccc3c2c1
In outline:
as §1

Compound in experiment [18]: CN(CCOC1=CC=C(C=C1)C[C@H]2C(=O)NC(=O)S2)C3=CC=CC=N3 (racemic) [rosiglitazone]
In outline:
as §1

Compound in experiment [19]: CN1C2=C(C3=C1C(=O)N(N=C3)CC4=CC(=CC=C4)N)SC(=C2)S(=O)C
In outline:
as §1

Compound in experiment [20]: CN1CCC(CNc2ccc3ncc(-c4cccc(OC(F)(F)F)c4)n3n2)CC1
In outline:
as §1

The other results are listed elsewhere or left out.

On to ENDOG (UniProt Q14249), for which the log2 fold change is inactive: -0.012 in experiment [1]; inactive: -0.016 in experiment [2]; inactive: -0.038 in [3]; inactive: 0.056 in [4]; inactive: 0.004 in experiment [5]; inactive: -0.002 in experiment [6]. In addition, the log2 fold change in [7] was inactive: 0.036; in [8], inactive: -0.003; in [9], inactive: 0.033; in experiment [10], inactive: 0.04; in experiment [11], inactive: -0.063; in experiment [12] it was inactive: -0.068. Also, the log2 fold change in experiment [13] is inactive: 0.007; in experiment [14] it was inactive: 0.146; in experiment [15] it was inactive: -0.062; in experiment [16], inactive: -0.015; in experiment [17], inactive: -0.006; in experiment [18] it was inactive: 0.025. Besides, the log2 fold change in experiment [19] is inactive: -0.012; in experiment [20], inactive: 0.056.

On to EEF1E1 (UniProt O43324), for which the log2 fold change was inactive: 0.033 in [1]; inactive: 0.022 in experiment [2]; inactive: -0.019 in experiment [3]; inactive: -0.033 in experiment [4]; inactive: 0.188 in experiment [5]; inactive: -0.037 in [6]. Also, the log2 fold change is inactive: 0.053 in experiment [7]; inactive: 0.048 in [8]; inactive: 0.02 in experiment [9]; inactive: 0.041 in experiment [10]; inactive: 0.033 in [11]; inactive: -0.068 in experiment [12]. The log2 fold change in experiment [13] was inactive: 0.05; in experiment [14] it was inactive: -0.108; in experiment [15], inactive: -0.057; in experiment [16], inactive: 0.003; in experiment [17] it was inactive: -0.038; in experiment [18], inactive: 0.012. Also, the log2 fold change was inactive: 0.063 in [19] and inactive: -0.051 in experiment [20].

Turning to ELAC2 (UniProt Q9BQ52), the log2 fold change is inactive: -0.017 in [1]; inactive: 0.017 in [2]; inactive: 0.01 in [3]; inactive: -0.002 in [4]; inactive: -0.056 in [5]; inactive: -0.031 in experiment [6]. Also, the log2 fold change was inactive: 0.015 in experiment [7]; inactive: -0.04 in [8]; inactive: -0.097 in [9]; inactive: -0.021 in [10]; inactive: 0.038 in experiment [11]; inactive: 0.098 in experiment [12]. For the same target, the log2 fold change in experiment [13] was inactive: -0.022; in [14] it was inactive: 0.006; in experiment [15], inactive: -0.042; in [16] it was inactive: -0.006; in experiment [17], inactive: -0.013; in [18] it was inactive: 0.015. Also, the log2 fold change in experiment [19] was inactive: -0.035; in experiment [20], inactive: -0.043.

For the target EHBP1L1 (UniProt Q8N3D4), the log2 fold change in experiment [1] is inactive: 0; in experiment [2] it was inactive: -0.02; in experiment [3], inactive: -0.003; in [4], inactive: -0.043; in experiment [5], inactive: 0.011; in experiment [6] it was inactive: 0.034. Also, the log2 fold change is inactive: 0.007 in experiment [7]; inactive: 0.025 in experiment [8]; inactive: 0.026 in experiment [9]; inactive: 0.016 in experiment [10]; inactive: -0.035 in experiment [11]; active: -0.307 in experiment [12]. In addition, the log2 fold change in experiment [13] is inactive: 0.091; in experiment [14], inactive: 0.072; in [16], inactive: -0.055; in experiment [17] it was inactive: 0.029; in experiment [19], inactive: 0.077; in experiment [20], inactive: 0.101.

The values are drawn from the supplement of paper PMC10849652.
